Library screen at single concentrations

Sequences of proteins named here, by UniProt entry; tags and fusion partners are left off. Residues count along the entry.
UniProt A4I591, 1-473: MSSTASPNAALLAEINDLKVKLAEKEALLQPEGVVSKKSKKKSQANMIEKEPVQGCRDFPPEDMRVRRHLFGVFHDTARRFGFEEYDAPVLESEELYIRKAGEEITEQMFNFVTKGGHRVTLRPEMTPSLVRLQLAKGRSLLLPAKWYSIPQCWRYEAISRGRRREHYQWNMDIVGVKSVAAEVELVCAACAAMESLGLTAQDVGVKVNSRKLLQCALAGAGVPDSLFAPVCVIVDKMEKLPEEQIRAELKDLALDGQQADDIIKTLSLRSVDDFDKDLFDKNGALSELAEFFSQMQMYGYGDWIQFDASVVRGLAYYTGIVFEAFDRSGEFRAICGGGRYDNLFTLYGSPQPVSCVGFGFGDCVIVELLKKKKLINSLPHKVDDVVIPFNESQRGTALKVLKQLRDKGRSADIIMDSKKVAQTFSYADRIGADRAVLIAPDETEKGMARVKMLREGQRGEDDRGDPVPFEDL
UniProt P9WNZ1, whole entry: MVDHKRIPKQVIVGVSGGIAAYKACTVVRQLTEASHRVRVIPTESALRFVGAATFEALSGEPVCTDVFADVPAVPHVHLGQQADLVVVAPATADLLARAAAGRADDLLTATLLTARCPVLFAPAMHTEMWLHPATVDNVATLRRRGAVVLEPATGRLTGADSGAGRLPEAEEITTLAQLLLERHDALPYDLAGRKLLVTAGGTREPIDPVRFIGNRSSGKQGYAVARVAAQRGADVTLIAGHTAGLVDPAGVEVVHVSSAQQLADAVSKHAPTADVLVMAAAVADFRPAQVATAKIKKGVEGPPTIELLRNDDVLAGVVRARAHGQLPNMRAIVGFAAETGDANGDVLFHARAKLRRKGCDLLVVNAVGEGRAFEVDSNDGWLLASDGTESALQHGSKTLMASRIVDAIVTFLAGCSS
UniProt P9WFT3, whole entry: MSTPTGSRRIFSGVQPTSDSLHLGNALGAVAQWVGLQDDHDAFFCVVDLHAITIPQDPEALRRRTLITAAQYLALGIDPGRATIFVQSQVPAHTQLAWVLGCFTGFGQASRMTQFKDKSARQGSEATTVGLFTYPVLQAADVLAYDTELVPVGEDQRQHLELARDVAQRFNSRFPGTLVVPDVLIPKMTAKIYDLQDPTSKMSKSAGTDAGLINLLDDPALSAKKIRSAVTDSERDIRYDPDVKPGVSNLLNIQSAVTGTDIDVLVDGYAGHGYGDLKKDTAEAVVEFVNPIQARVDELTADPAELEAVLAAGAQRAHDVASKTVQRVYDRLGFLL

Source: ChEMBL document CHEMBL3988442, “University of Dundee, Small-Polar-MMV Screening Library” (2021).

Results are given as percent effect.
The controls that fix the scale are not given in the record; negative values are as filed.
The compounds are a random part of those screened.
Two or more numbers in one place are separate tests of the same structure; such repeats can differ widely.
A dash means the value is not listed here; it may have been measured.

LiHisRS: 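Histidine-tRNA ligase, Leishmania infantum (UniProt A4I591). Enzyme assay of histidyl-tRNA synthetase; the read-out is not stated. Compounds at 30 µM. The record gives no direction; compounds that gave an IC50 in retests scored well above the rest, so higher reads as stronger inhibition. The assay is labelled LdHisRS but filed under L. infantum. Of about 69,000 compounds tested this way, about 410 (0.6%) reached 50% or more in at least one test.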
CoaBC: 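Coenzyme A biosynthesis protein CoaBC, Mycobacterium tuberculosis (UniProt P9WNZ1). Enzyme assay of CoaBC with a phosphate dye (Biomol Green) read at 650 nm. Tested at 30 µM. Higher reads as stronger inhibition, judged from the few compounds that gave an IC50. Most strong results did not repeat in a second test. Of about 67,000 compounds tested this way, about 40 (0.06%) reached 50% or more in at least one test.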
MtTrpRS: 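Enzyme assay of tryptophanyl-tRNA synthetase; the read-out is not stated. Target: Tryptophan-tRNA ligase, Mycobacterium tuberculosis (UniProt P9WFT3). Tested at 10 µM. Direction is not recorded; retested compounds ran higher, which suggests that high means inhibition. Of about 65,000 compounds tested this way, about 64 (0.098%) reached 50% or more in at least one test.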

structure | LiHisRS | CoaBC | MtTrpRS
CCN(CC)C(=O)CSc1nnc(CCNC(=O)OC(C)(C)C)o1 | 5.263 | -3.788 | -6.233
Cc1ccc(-c2nnc(CN3CC[C@H](CO)[C@@H](O)C3)o2)n1C | 10.45 | 6.827 | -1.547
Cc1cc(Cn2cncc(Br)c2=O)on1 | -2.857 | 8.855 | -4.534
CNC(=O)CCc1cc(C2CCCCN2C)nc(C)n1 (configuration not stated) | 4.027 | -0.6849 | -7.542
O=C(c1ccc2[nH]cnc2c1)N1CCC(Oc2ccccn2)CC1 | 1.333 | 4.573 | -0.983
COc1ccc(N2Cc3nc(=O)n(Cc4cccc(F)c4)n3C2=O)cc1 | 7.609 | 2.542 | 2.177
COc1cc(N2CCC(c3nccn3Cc3cccnc3)CC2)ncn1 | 5.479 | 8.068 | 5.365
N#Cc1c(F)cccc1NCCCOCC1CCOC1 (configuration not stated) | 9.948 | 4.348 | -3.179
Cc1noc2ncc(C(=O)NCC3CCCOC3)cc12 (configuration not stated) | 12.84 | 4.859 | -0.936
CN(C(=O)CSc1ncc[nH]1)C1CC1 | 7.447 | -3.367 | 0.129
COCCN(C)C(=O)c1nc2c(s1)CCCN2S(C)(=O)=O | -1.754 | -3.704 | -7.448
CCC(C)NC(=O)Nc1cccc(OC)c1 (configuration not stated) | 8.29 | -2.42 | -0.9202
c1cncc(Cc2nnc3n2CCN(CC2CCCNC2)CC3)c1 (configuration not stated) | 24.05 | 2.915 | 0.8961
COc1ccc(CN2CCCC(N3CCCC3)C2)cc1Cn1cncn1 (configuration not stated) | 6.061 | 6.25 | 6.054
CSCC(C)(O)CNC(=O)c1cc(F)ccc1Br (configuration not stated) | 18.18 | 2.959 | 1.385
Cc1c[nH]nc1C1CCN(C(=O)C2CCOCC2)C1 (configuration not stated) | -11.35 | 11.86 and 21.21 | 13.82
CN(C)c1ccc(CCCNC(=O)Nc2ccc(C#N)cc2)cc1 | 13.46 | 6.61 | -0.6966
COc1c(CNCc2ccc(CN3CCOCC3)cc2)c(C)nn1C | 8 | -0.4132 | 10.15
O=C(CCn1nnc2ccccc2c1=O)N(CC1CCOC1)C1CC1 (configuration not stated) | 8.475 | 2.635 | 1.972
c1ccc(Cc2noc(-c3ccc(NCC4CCCOC4)nc3)n2)cc1 (configuration not stated) | -3.529 | 0.6472 | -3.634
Cc1cc(C)c(C(=O)NCCNc2ncnc3ccccc23)c(=O)[nH]1 | 13.7 | 5.992 | -7.542
CCCc1cnc(C)nc1N1CCC(F)(F)CC1 | 15.62 | 1.952 | 0.000009
CN(Cc1noc(C2CC2)n1)C1CCN(Cc2ncc[nH]2)C1 (configuration not stated) | -1.835 | -0.2558 | 10.19
CC(C)OCc1nn(C)c2c1CCN(CC1CC1)C2 | 18.87 | 0.2439 | -
CC1c2ncc(CN3CCN(C)CC3)n2CCN1CC1CC1 (configuration not stated) | 20.75 | 2.919 | 1.154
Cc1ccc(-c2nc(CN3C[C@@H](C)NC[C@@H]3C)c(C)o2)s1 | 24.05 | 2.915 | 1.254
CCc1nc(CNc2ccc(-c3nc(C4CC4)no3)cn2)no1 | 9.091 | 3.14 | -2.545
CCS(=O)(=O)N1CCn2cc(CN(C)Cc3ccco3)nc2C1 | 11 | 3.337 | -6.899
CC(C)NC(=O)Nc1ccc(CNCc2cccc(C#N)c2)cc1 | 28.12 | 1.845 | 1.541
O=C(Nc1ccccc1C(=O)N1CCCC1)NC1CCOCC1 | 2.74 | 1.594 | -4.489
O=C(CN1CCOC(Cn2cccn2)C1)Nc1cccnc1 (configuration not stated) | 3.704 | -0.2551 | 0.1273
CCN(Cc1cccc2c1OCO2)C(=O)Nc1cn[nH]c1 | 13.68 | -6.702 | 6.19
CN1CC(C(=O)NCCc2ccc(Br)cc2F)CC1=O (configuration not stated) | 6.024 | -1.38 | -1.53
C=C(C)CN(CC)Cc1nc(C2CC2)no1 | 1.709 | -7.265 | -6.067
O=C(Cc1ccc(CO)cc1)N1CCN(CC2CC2)[C@@H]2CS(=O)(=O)C[C@@H]21 | 6.061 | -8.876 | 0.09234
COc1ccc2c(ccn2CCC(=O)Nc2ccc(C(N)=O)cc2)c1 | -2.174 | -2.552 | -2.412
CC(C)OCc1noc(C2CCOC2)n1 (configuration not stated) | 18.99 | 2.155 | -0.2987
Cn1ccc(C(=O)N2CCN(Cc3ccccc3F)CC2)cc1=O | 11.5 | 2.103 | -2.562

Once more, the final 3:

| structure | LiHisRS | CoaBC | MtTrpRS |
|---|---|---|---|
| `COc1ccc2c(ccn2CCC(=O)Nc2ccc(C(N)=O)cc2)c1` | -2.174 | -2.552 | -2.412 |
| `CC(C)OCc1noc(C2CCOC2)n1` (configuration not stated) | 18.99 | 2.155 | -0.2987 |
| `Cn1ccc(C(=O)N2CCN(Cc3ccccc3F)CC2)cc1=O` | 11.5 | 2.103 | -2.562 |